This passage reports NP40-soluble protein abundance results from the supplement of paper PMC6411743.

Chains of the proteins cited; added tags and fusions are not shown. Lines headed by an entry give the natural chain unless they say otherwise; changes in a name come on top.
UniProt Q96ED9: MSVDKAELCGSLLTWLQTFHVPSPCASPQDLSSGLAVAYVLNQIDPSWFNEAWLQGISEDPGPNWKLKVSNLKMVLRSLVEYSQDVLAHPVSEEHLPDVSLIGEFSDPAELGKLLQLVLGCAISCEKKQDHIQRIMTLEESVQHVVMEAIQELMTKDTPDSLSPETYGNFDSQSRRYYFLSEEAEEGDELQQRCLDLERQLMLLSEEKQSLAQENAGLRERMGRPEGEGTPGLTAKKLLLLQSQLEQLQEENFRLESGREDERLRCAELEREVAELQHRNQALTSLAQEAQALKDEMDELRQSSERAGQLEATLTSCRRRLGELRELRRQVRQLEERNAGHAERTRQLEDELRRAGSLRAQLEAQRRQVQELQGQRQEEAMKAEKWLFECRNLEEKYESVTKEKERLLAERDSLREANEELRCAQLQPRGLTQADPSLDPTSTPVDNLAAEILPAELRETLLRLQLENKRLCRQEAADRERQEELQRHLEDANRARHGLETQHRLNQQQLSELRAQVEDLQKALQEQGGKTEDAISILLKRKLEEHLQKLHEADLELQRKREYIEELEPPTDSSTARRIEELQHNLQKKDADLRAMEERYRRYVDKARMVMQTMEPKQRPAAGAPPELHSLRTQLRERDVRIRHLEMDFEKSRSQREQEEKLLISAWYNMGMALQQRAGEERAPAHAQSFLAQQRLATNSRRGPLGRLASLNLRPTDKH
UniProt Q96H35: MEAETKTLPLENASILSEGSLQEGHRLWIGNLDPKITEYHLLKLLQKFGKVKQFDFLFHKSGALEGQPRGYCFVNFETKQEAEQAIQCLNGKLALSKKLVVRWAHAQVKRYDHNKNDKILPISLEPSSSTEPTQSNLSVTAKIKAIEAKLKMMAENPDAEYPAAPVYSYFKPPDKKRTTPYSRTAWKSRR
UniProt Q96L93: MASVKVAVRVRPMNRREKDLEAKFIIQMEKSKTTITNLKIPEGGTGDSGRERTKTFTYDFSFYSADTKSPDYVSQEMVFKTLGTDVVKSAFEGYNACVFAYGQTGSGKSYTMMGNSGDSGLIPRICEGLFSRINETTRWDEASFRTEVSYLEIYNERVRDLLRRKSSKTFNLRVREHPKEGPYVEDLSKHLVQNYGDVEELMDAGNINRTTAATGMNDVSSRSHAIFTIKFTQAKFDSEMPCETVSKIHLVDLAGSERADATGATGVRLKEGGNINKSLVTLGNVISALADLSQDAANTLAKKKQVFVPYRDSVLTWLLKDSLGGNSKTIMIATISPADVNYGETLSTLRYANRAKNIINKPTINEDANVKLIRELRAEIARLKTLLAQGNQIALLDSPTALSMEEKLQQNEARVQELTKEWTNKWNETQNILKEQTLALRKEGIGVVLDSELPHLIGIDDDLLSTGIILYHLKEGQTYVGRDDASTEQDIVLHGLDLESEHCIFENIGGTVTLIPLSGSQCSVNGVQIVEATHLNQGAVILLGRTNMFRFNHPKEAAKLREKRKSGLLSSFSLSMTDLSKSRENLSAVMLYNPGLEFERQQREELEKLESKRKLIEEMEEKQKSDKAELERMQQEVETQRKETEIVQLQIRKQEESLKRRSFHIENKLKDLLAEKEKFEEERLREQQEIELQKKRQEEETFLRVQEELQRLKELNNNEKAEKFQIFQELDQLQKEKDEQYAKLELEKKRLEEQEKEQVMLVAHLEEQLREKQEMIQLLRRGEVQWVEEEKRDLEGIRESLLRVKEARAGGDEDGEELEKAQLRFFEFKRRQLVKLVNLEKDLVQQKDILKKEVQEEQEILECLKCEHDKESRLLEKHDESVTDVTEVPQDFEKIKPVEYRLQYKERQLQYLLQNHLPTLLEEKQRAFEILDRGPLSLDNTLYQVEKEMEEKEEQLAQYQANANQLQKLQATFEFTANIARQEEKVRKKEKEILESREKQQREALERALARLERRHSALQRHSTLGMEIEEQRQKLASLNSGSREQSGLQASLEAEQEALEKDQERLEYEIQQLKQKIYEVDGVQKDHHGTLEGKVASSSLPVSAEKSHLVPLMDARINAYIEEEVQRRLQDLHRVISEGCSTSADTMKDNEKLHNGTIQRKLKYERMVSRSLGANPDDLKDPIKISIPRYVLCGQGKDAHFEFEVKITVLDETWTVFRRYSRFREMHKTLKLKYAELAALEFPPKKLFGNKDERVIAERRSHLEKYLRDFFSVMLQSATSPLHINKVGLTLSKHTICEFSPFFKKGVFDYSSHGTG
UniProt Q96Q15: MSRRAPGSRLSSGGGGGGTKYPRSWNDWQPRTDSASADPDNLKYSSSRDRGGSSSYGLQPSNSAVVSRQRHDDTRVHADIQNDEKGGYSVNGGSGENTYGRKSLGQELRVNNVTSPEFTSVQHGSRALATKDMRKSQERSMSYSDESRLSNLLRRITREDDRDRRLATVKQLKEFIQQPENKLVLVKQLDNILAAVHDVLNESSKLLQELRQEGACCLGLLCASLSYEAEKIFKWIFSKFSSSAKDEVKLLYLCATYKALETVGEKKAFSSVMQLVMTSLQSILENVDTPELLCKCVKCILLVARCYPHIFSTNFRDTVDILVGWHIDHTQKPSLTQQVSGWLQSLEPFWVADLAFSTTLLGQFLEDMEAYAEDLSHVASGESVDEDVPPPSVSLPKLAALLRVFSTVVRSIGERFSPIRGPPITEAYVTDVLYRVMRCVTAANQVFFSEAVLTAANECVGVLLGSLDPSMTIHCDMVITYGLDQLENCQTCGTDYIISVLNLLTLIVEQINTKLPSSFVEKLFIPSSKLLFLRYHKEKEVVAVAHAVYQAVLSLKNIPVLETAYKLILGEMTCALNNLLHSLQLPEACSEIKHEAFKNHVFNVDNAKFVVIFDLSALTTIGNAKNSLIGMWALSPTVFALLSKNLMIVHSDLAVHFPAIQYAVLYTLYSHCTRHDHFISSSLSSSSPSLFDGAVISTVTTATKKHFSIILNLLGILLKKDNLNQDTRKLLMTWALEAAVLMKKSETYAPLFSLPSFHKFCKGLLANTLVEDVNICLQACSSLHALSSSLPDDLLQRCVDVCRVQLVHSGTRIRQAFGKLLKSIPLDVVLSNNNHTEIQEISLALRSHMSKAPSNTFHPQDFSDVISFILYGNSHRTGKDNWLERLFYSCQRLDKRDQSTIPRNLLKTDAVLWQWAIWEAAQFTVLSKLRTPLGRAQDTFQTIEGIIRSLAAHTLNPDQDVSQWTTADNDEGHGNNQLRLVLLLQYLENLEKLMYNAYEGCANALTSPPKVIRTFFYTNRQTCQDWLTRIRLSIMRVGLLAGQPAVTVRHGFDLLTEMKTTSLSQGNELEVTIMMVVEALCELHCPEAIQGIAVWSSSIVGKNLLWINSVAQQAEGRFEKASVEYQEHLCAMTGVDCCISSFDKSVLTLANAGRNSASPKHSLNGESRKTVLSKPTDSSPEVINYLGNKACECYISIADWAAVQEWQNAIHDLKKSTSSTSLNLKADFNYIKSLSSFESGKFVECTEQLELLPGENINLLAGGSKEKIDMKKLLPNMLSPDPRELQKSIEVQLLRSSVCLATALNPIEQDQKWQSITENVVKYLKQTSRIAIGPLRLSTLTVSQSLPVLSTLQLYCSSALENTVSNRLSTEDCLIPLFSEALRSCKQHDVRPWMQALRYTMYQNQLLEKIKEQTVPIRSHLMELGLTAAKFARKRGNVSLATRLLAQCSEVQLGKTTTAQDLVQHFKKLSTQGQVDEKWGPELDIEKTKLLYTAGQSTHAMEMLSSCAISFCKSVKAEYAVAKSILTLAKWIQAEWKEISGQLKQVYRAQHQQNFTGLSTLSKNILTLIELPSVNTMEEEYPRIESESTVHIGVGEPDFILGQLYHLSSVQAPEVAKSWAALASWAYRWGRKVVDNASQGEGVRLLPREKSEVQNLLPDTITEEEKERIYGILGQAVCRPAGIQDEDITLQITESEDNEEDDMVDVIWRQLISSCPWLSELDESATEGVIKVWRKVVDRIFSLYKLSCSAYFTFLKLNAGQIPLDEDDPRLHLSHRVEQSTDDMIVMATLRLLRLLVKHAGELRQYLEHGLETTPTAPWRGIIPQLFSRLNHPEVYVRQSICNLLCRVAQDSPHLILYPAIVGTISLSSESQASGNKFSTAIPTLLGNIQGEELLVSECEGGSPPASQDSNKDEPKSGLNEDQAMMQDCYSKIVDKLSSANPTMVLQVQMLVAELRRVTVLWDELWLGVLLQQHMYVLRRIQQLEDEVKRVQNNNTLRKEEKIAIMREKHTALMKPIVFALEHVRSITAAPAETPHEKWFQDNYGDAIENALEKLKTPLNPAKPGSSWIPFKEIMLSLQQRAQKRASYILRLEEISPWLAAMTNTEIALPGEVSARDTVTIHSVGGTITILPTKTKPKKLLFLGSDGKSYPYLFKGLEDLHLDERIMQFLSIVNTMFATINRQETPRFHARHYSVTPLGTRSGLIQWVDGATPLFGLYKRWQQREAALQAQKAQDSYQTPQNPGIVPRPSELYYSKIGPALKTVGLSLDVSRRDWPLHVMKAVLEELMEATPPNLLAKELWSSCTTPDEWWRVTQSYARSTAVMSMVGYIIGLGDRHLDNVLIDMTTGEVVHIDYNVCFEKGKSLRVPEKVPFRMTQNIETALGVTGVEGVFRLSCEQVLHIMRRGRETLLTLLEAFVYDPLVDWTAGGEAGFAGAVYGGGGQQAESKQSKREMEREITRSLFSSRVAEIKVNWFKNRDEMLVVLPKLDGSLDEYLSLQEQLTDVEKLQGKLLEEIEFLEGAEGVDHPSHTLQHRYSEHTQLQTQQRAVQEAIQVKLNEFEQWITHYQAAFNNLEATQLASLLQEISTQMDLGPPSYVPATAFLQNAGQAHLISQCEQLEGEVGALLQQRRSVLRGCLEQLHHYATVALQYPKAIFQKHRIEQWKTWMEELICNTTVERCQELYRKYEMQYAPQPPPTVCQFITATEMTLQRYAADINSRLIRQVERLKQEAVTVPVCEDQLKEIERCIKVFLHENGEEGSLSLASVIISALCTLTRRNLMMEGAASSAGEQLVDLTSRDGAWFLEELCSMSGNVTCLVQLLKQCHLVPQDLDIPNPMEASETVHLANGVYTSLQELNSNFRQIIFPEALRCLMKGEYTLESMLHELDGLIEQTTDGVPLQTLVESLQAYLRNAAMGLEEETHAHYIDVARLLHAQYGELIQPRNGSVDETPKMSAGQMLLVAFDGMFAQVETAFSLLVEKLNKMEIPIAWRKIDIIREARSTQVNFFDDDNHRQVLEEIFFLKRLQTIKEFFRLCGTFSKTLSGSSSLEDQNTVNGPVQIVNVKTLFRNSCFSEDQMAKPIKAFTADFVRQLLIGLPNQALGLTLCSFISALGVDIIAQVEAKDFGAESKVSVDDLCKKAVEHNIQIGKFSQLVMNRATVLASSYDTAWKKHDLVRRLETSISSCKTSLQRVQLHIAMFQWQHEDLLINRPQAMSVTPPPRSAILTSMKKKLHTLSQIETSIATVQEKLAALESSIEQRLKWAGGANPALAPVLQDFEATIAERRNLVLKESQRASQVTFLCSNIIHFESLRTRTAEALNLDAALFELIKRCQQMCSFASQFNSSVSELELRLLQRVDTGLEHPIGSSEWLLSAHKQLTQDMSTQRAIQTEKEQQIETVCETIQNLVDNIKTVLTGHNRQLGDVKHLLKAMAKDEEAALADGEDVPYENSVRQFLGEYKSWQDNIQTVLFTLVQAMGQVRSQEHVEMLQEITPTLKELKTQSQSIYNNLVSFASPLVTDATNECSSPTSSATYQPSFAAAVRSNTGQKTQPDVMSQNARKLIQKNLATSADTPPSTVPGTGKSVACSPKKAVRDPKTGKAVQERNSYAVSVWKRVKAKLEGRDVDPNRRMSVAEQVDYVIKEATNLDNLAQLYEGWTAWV
UniProt Q96FJ2, whole entry: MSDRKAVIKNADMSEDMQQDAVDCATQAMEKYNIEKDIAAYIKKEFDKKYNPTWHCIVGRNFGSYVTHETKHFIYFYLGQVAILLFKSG
UniProt Q96MH6: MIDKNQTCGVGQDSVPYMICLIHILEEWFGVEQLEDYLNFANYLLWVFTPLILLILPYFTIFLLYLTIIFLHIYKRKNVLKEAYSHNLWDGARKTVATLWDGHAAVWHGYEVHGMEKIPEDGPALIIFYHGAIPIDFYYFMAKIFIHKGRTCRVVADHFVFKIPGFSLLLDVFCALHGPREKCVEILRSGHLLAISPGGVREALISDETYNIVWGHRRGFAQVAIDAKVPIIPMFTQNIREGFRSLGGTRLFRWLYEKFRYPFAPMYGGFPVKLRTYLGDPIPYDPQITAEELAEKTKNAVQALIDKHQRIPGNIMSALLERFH

± gives the standard deviation of the averaged measurements. This is a selection; strong and weak results do not stand in their true shares.

Compound in this assay: Nc1ncnc2c1ncn2[C@@H]1O[C@H](COP(=O)(O)OP(=O)(O)OP(=O)(O)O)[C@@H](O)[C@H]1O [adenosine triphosphate]
The experiment in a line: NP40-soluble protein abundance relative to vehicle (solubility fold change) (ratio); higher = more soluble protein in presence of ATP. Summed up: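 Eight concentrations, 0.1 to 10 mM, were tested on Jurkat crude lysate for 10 min at room temperature and then 3 min at 37 °C, in three independent experiments. The lysate was solubilised with 0.8% NP40 and benzonase, ultracentrifuged, and the supernatant TMT-labelled for LC-MS/MS. Each value is the fold change against the detergent-processed vehicle in its own replicate, from vsn-normalised intensities.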

For UniProt Q96L92 and related entries, the NP40-soluble protein abundance (concentration: 1mM) is 1 ± 0.099; the NP40-soluble protein abundance (concentration: 2mM) amounted to 0.993 ± 0.1; the NP40-soluble protein abundance (concentration: 4mM) worked out at 1.01 ± 0.069; the NP40-soluble protein abundance (concentration: 6mM) was found to be 0.94 ± 0.12; the NP40-soluble protein abundance (concentration: 8mM) was determined as 1.05 ± 0.063; the NP40-soluble protein abundance (concentration: 10mM) was determined as 1.02 ± 0.059.

With UniProt Q96ED9 and related entries, the NP40-soluble protein abundance worked out at 0.99 ± 0.32 (concentration: 1mM); 0.919 ± 0.074 (concentration: 2mM); 1.05 ± 0.14 (concentration: 4mM); 0.986 ± 0.2 (concentration: 6mM); 1 ± 0.23 (concentration: 8mM); 0.897 ± 0.038 (concentration: 10mM).

As for RBM18 (UniProt Q96H35), the NP40-soluble protein abundance was 0.929 ± 0.093 (concentration: 1mM); 0.9153 ± 0.0066 (concentration: 2mM); 0.96 ± 0.11 (concentration: 4mM); 0.887 ± 0.13 (concentration: 6mM); 0.955 ± 0.022 (concentration: 8mM); 0.898 ± 0.12 (concentration: 10mM).

In the case of UniProt Q96RG2 and related entries, the NP40-soluble protein abundance reads like this: (concentration: 1mM) 0.968 ± 0.025; (concentration: 2mM) 0.981 ± 0.051; (concentration: 4mM) 0.966 ± 0.027; (concentration: 6mM) 0.9639 ± 0.0075; (concentration: 8mM) 0.948 ± 0.058; (concentration: 10mM) 0.949 ± 0.027.

Turning to UniProt Q96L93 and related entries, the NP40-soluble protein abundance runs as follows: (concentration: 1mM) 1.02 ± 0.013; (concentration: 2mM) 1.01 ± 0.027; (concentration: 4mM) 1.07 ± 0.037; (concentration: 6mM) 1.03 ± 0.05; (concentration: 8mM) 1.02 ± 0.057; (concentration: 10mM) 1.05 ± 0.025.

SMG1 (UniProt Q96Q15): the NP40-soluble protein abundance is 1 ± 0.074 (concentration: 1mM); 0.97 ± 0.044 (concentration: 2mM); 1.01 ± 0.05 (concentration: 4mM); 0.992 ± 0.032 (concentration: 6mM); 1.03 ± 0.028 (concentration: 8mM); 1.04 ± 0.012 (concentration: 10mM).

With UniProt Q96S66 and related entries, the NP40-soluble protein abundance by setting is: (concentration: 1mM) 1 ± 0.057; (concentration: 2mM) 0.985 ± 0.027; (concentration: 4mM) 0.976 ± 0.043; (concentration: 6mM) 0.984 ± 0.048; (concentration: 8mM) 0.954 ± 0.054; (concentration: 10mM) 0.926 ± 0.054.

Take UniProt Q96FJ2: the NP40-soluble protein abundance is 1 ± 0.11 (concentration: 1mM); 0.941 ± 0.068 (concentration: 2mM); 0.883 ± 0.095 (concentration: 4mM); 0.993 ± 0.12 (concentration: 6mM); 0.994 ± 0.034 (concentration: 8mM); 0.87 ± 0.15 (concentration: 10mM).

Consider UniProt Q96MH6 and related entries, for which the NP40-soluble protein abundance runs as follows: (concentration: 1mM) 1.05 ± 0.16; (concentration: 2mM) 1.1 ± 0.1; (concentration: 4mM) 1.06 ± 0.099; (concentration: 6mM) 1.01 ± 0.13; (concentration: 8mM) 1.08 ± 0.032; (concentration: 10mM) 1.01 ± 0.015.
